Laboratory results published in article PMC7862700.
The list shows a part of the results, in another mix than the full data. At the low end of the ranking the order means little.

Target: SPI1 (UniProt P17947)
Assay: DAPPL (digital affinity profiling via proximity ligation, sequencing)
Settings: 10 mM Tris-HCl pH 7.5, 50 mM NaCl, 1 mM DTT, 4% glycerol, room temperature, 30 min; GST-TFs on glutathione beads, 16-mer random dsDNA library, 0.1% …; high values mean tight binding; double strand, one strand shown; scale: fold enrichment (6-mer frequency, TF over GST control)

Row | Sequence | binding signal
1 | GGATGA | 0.99
2 | CGTCGT | 0.872
3 | GGTAGT | 0.733
4 | GTGGAC | 0.866
5 | AGTCTG | 0.686
6 | CAAGGC | 0.86
7 | CGGTAA | 0.904
8 | ATCGGA | 0.399
9 | GTCATA | 0.747
10 | CAGTAG | 0.583
11 | GTGTGT | 0.528
12 | CGTGCT | 0.826
13 | GGGAAC | 0.869
14 | GTAGTC | 0.667
15 | GGTCGT | 0.661
16 | CAAGTG | 0.665
17 | CACCAG | 0.669
18 | TGAGGG | 0.651
19 | ACAGTC | 0.434
20 | GTGAAA | 0.839

Row | Sequence | binding signal
21 | AGTTGA | 0.838
22 | AGACCC | 0.64
23 | GTGCAG | 0.778
24 | ACCATG | 0.864
25 | GAGTCG | 0.234
26 | CCCGAG | 0.757
27 | AGAGAG | 0.485
28 | AGTCAA | 0.699
29 | TAGAGT | 0.699
30 | CAGCCG | 0.624
31 | AGACTA | 0.732
32 | GATCGC | 0.786
33 | GGAGAG | 0.256
34 | CAGGGA | 0.533
35 | GAGAAC | 0.391
36 | ACGGTG | 0.529
37 | GGCCGG | 0.55
38 | GGGTGG | 0.73
39 | AAGCCA | 0.784
40 | GCATTG | 0.759

Looked up one by one from the entries so far, 3 records:
Row | Sequence | binding signal
22 | AGACCC | 0.64
31 | AGACTA | 0.732
9 | GTCATA | 0.747
